# Results of single-concentration screens

By UniProt entry, the sequences of proteins in these tests, tags left out.
UniProt P9WFT3, whole entry: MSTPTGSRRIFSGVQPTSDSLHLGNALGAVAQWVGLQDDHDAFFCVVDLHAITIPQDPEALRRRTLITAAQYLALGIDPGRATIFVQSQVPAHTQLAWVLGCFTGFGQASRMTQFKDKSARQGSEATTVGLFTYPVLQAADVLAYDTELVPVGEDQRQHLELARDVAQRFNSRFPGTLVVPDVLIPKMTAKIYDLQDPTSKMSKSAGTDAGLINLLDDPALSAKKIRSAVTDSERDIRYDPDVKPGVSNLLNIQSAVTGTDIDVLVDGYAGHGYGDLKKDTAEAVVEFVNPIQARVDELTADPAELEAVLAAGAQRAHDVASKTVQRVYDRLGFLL

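Tryptophan-tRNA ligase, Mycobacterium tuberculosis (UniProt P9WFT3). Enzyme assay of tryptophanyl-tRNA synthetase; the read-out is not stated. Concentration: 10 µM. Higher most likely means stronger inhibition; the record gives no direction and few retests gave an IC50. Size under these conditions: about 65,000 compounds, about 64 of them at 50% or above in at least one test.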

Results are given as percent effect. The controls that fix the scale are not given in the record; negative values are as filed. Compounds were drawn at random from those tested, without regard to their results.

{"compound": "CCC1CCCCCN1C(=O)c1ccc(N2CCC(O)CC2)cc1", "stereo": "centres undefined", "Percent Effect": 2.937}
{"compound": "COCC1CN(C(=O)CNC(C)=O)Cc2ncnn2C1", "stereo": "centres undefined", "Percent Effect": -0.9114}
{"compound": "O=C(NC[C@H]1OC[C@@H](NC2CCC(F)(F)CC2)[C@@H]1O)C1CC1", "Percent Effect": -1.593}
{"compound": "O=C(NC1CCCN(c2ccccn2)C1)C1(c2ccccc2F)CC1", "stereo": "centres undefined", "Percent Effect": 14.93}
{"compound": "CCc1nc(C(=O)N2CCCCC2)nn1-c1ccccc1Cl", "Percent Effect": -3.948}
{"compound": "CN(C)S(=O)(=O)N1CC[C@]2(C[C@H](OCc3ccncc3)CO2)C1", "Percent Effect": 7.502}
{"compound": "N#Cc1cccc(S(=O)(=O)N(CC2CCC2)c2cn[nH]c2)c1", "Percent Effect": -10.29}
{"compound": "Cc1noc(CCCNC(=O)N2CCc3ccccc3C2CO)n1", "stereo": "centres undefined", "Percent Effect": 2.089}
{"compound": "CC(C)OCCCNC(=O)C1CCC(=O)N(C2CCCC2)C1", "stereo": "centres undefined", "Percent Effect": 8.678}
{"compound": "COc1ccc(CCn2ccnc2-c2cc3n(n2)CCCNC3)cc1", "Percent Effect": -1.288}
{"compound": "Cc1ncc2c(n1)CN(Cc1noc(C3CC3)n1)CC2", "Percent Effect": 3.597}
{"compound": "CCCc1nc(CNc2ccc(F)c(F)c2)no1", "Percent Effect": 6.078}
{"compound": "c1cncc(-c2noc(CN3CCn4c(nnc4C4CC4)C3)n2)c1", "Percent Effect": -2.674}
{"compound": "CNc1nc(C2CCCN2C(C)=O)nc2c1CCN(CC1CC1)C2", "stereo": "centres undefined", "Percent Effect": 2.417}
{"compound": "Cc1cccc(C(=O)Nc2cccc3c2CCCC3)n1", "Percent Effect": 2.785}
{"compound": "CCOCc1nc2c(c(NC(CC)c3ccnn3C)n1)CCNCC2", "stereo": "centres undefined", "Percent Effect": -1.547}
{"compound": "Cc1ccc(S(=O)(=O)NCc2[nH]ncc2Br)cc1C", "Percent Effect": -3.901}
{"compound": "COc1cccc(CCC2CCCN(C(=O)c3ccc(=O)n(C)n3)C2)c1", "stereo": "centres undefined", "Percent Effect": -1.053}
{"compound": "CCn1cc(CN2CCCN(C(=O)CCc3ccncc3)CC2)cn1", "Percent Effect": -0.7194}
{"compound": "Cc1cccc(=O)n1CCC(=O)N1CCC2(CC1)OCCCC2O", "stereo": "centres undefined", "Percent Effect": -2.166}
{"compound": "CC(C)CC(C)(CNC(=O)c1cnccn1)NC(=O)c1cnccn1", "stereo": "centres undefined", "Percent Effect": -1.511}
{"compound": "COc1c(C)cnc(CN(C)C2CCN(C3CCOCC3)CC2)c1C", "Percent Effect": 5.048}
{"compound": "O=C(c1cccnc1)N1C[C@@H]2CN(CCN3CCCC3)C(=O)[C@@H]2C1", "Percent Effect": -5.315}
{"compound": "Cc1noc(C)c1CS(=O)(=O)CC(=O)NCCc1ccccc1", "Percent Effect": -3.561}
{"compound": "COCCN(Cc1nccs1)C(=O)c1cc(-c2ccc(C)s2)n[nH]1", "Percent Effect": -8.004}
{"compound": "COc1ccc2cc(CN(C)C(C)c3nc(C4CC4)no3)ccc2c1", "stereo": "centres undefined", "Percent Effect": 2.457}
{"compound": "c1ccc(-c2nc(CN3CCCC3Cn3cncn3)cs2)cc1", "stereo": "centres undefined", "Percent Effect": -0.236}
{"compound": "CC(C)c1nc(N2CC(N3CCCCC3C)C2)c2cnn(C)c2n1", "stereo": "centres undefined", "Percent Effect": 2.22}
{"compound": "Cc1cnc(N2CCc3c(CN(C)Cc4ccco4)cncc3C2)nc1", "Percent Effect": 5.94}
{"compound": "CCc1ccc(C(COC)NC(=O)c2ccc(C(N)=O)cc2)o1", "stereo": "centres undefined", "Percent Effect": 2.007}
{"compound": "CC(Cn1ccnc1)NC(=O)N1CCN(Cc2cccs2)CC1", "stereo": "centres undefined", "Percent Effect": 15.52}
{"compound": "Cc1cc(F)ccc1NS(=O)(=O)c1cc2c(c(C(=O)O)c1)OCCO2", "Percent Effect": 3.888}

Source: ChEMBL document CHEMBL3988442, “University of Dundee, Small-Polar-MMV Screening Library” (2021).